Assay results from US20100144755A1 (Glaxo Group Limited, priority 2006, published 2010).
Some entries share one result that the patent states for a list of compounds.

Chains of the proteins cited; added tags and fusions are not shown.
UniProt Q16539, whole entry: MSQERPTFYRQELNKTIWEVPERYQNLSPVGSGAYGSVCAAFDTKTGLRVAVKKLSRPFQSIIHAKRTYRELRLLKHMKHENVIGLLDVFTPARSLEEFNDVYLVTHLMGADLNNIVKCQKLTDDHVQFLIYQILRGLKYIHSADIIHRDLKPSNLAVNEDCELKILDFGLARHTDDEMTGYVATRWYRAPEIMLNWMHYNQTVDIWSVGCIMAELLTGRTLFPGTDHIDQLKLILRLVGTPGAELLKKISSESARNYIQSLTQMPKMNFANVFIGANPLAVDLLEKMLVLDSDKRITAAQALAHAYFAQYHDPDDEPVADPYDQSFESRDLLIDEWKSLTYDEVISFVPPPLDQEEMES

How the values were obtained:
[1] = system: TNF-stimulated IL8 production by human neutrophils; experiment: TNF-stimulated IL-8 production from human neutrophils; assay type: cell-based; conditions: TNF 100 ng/ml, about 20 hrs, screened up to 100 nM; result in words;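 also: IL-8 in cell-free supernatant quantified by sandwich ELISA, inhibition calculated against a compound-free control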
Recombinant human p38α = biological target: T1, Recombinant human p38α (Homo sapiens, UniProt Q16539); experiment: Time-resolved fluorescence resonance energy transfer (TR-FRET) kinase assay (standard and low volume); assay type: biochemical; parameters: key: active: a pIC50 of greater than 4.6 up to about a pIC50 of greater than 10.0; conditions: MKK6-activated p38α 100 pM, GST-ATF2 substrate; result in words
T1 construct: His; made in house
Description: Time-Resolved Fluorescence Resonance Energy Transfer Linase Standard Assay
(§1) Recombinant human p38α was expressed as a His-tagged protein. To activate this protein, 3 μM unactivated p38α was incubated in 200 mM Hepes pH 7.4, 625 mM NaCl, 1 mM DTT with 27 nM active MKK6 (Upstate), 1 mM ATP and 10 mM MgCl2 The activity of the MKK6-activated p38α was assessed using a time-resolved fluorescence resonance energy transfer (TR-FRET) assay.
Biotinylated-GST-ATF2 (residues 19-96, 400 nM final), ATP ([…]) and MgCl2 (5 mM final) in assay buffer (40 mM HEPES pH 7.4, 1 mM DTT) were added to wells containing 1 ul of various concentrations of compound or DMSO vehicle (3% final) in NUNC 384 well black plate. The reaction was initiated by the addition of MKK6-activated p38 (100 pM final) to give a total volume of 30 ul. The reaction was incubated for 120 minutes at room temperature, then terminated by the addition of 15 μl of 100 mM EDTA pH 7.4. Detection reagent (15 μl) in buffer (100 mM HEPES pH 7.4, 150 mM NaCl, 0.1% w/v BSA, 1 mM DTT) containing antiphosphothreonine-ATF2-71 polyclonal antibody (Cell Signalling Technology, Beverly Mass., USA) labelled with W-1024 europium chelate (Wallac O Y, Turku, Finland), and APC-labelled streptavidin (Prozyme, San Leandro, Calif., USA) was added and the reaction was further incubated for 60 minutes at room temperature. The degree of phosphorylation of GST-ATF2 was measured using a Packard Discovery plate reader (Perkin-Elmer Life Sciences, Pangbourne, UK) as a ratio of specific 665 nm energy transfer signal to reference europium 620 nm signal.
Time-Resolved Fluorescence Resonance Energy Transfer Kinase Low Volume Assay
as §1, with “pH7.4,” for “pH 7.4,”
Biotinylated-GST-ATF2 (residues 19-96, 400 nM final), ATP (125 μM final) and MgCl2 (5 mM final) in assay buffer (40 mM HEPES pH 7.4, 1 mM DTT) were added to wells containing 0.1 μl of various concentrations of compound or DMSO vehicle (1.7% final) in Greiner low volume 384 well black plate. The reaction was initiated by the addition of MKK6-activated p38α (100 pM final) to give a total volume of 6 μl. The reaction was incubated for 120 minutes at room temperature, then terminated by the addition of 3 μl of detection reagent in buffer (100 mM HEPES pH 7.4, 150 mM NaCl, 0.1% w/v BSA, 1 mM DTT, 100 mM EDTA) containing antiphosphothreonine-ATF2-71 polyclonal antibody (Cell Signalling Technology, Beverly Mass., USA) labelled with W-1024 europium chelate (Wallac O Y, Turku, Finland), and APC-labelled streptavidin (Prozyme, San Leandro, Calif., USA). The reaction was further incubated for 60 minutes at room temperature. The degree of phosphorylation of GST-ATF2 was measured using a BMG Rubystar plate reader (BMG, UK) as a ratio of specific 665 nm energy transfer signal to reference europium 620 nm signal.
It is noted that there are two assay formats shown above for the Time-resolved fluorescence resonance energy transfer kinase assay. The only difference between these two assays is the volume used and the plate type. […] The results described herein may have been performed in either assay format and are not differentiated as to which.

Compound	activity (IC50) against TNF-stimulated IL-8 production from human neutrophils [1]	activity (pIC50) in TR-FRET p38α kinase assay (Recombinant human p38α)
Cc1c(F)cc(C(=O)NC2CC2)cc1-c1nc(NC(CO)CO)nc2c1ccc(=O)n2-c1c(F)cccc1F [18(e), N-cyclopropyl-3-(8-(2,6-difluorophenyl)-2-{[2-hydroxy-1-(hydroxymethyl)ethyl]amino}-7-oxo-7,8-dihydropyrido[2,3-d]pyrimidin-4-yl)-5-fluoro-4-methylbenzamide]	active	active
CNC1CCN(c2nc(-c3cc(C(=O)NC(C)C)ccc3C)c3ccc(=O)n(-c4c(F)cccc4F)c3n2)CC1 [113(b), 3-{8-(2,6-difluorophenyl)-2-[4-(methylamino)-1-piperidinyl]-7-oxo-7,8-dihydropyrido[2,3-d]pyrimidin-4-yl}-4-methyl-N-(1-methylethyl)benzamide]	active	active
CNC1CCN(c2nc(-c3cc(C(=O)Nc4ccc(F)cc4)ccc3C)c3ccc(=O)n(-c4c(F)cccc4F)c3n2)CC1 [114(b), 3-{8-(2,6-difluorophenyl)-2-[4-(methylamino)-1-piperidinyl]-7-oxo-7,8-dihydropyrido[2,3-d]pyrimidin-4-yl}-N-(4-fluorophenyl)-4-methylbenzamide]	active	active
CCN(CC)CCCNc1nc(-c2cccc(C(=O)Nc3nccs3)c2C)c2ccc(=O)n(-c3c(F)cccc3F)c2n1 [150(d), 3-[2-{[3-(diethylamino)propyl]amino}-8-(2,6-difluorophenyl)-7-oxo-7,8-dihydropyrido[2,3-d]pyrimidin-4-yl]-2-methyl-N-1,3-thiazol-2-ylbenzamide]	active	active
Cc1ccc(C(=O)NC(C)C)cc1-c1nc(N2CCC(N3CCC(C)CC3)CC2)nc2c1ccc(=O)n2-c1c(F)cccc1F [163(c), 3-[8-(2,6-difluorophenyl)-2-(4-methyl-1,4′-bipiperidin-1′-yl)-7-oxo-7,8-dihydropyrido[2,3-d]pyrimidin-4-yl]-4-methyl-N-(1-methylethyl)benzamide]	active	active
CCN(CC)CCCNc1nc(-c2cc(C(=O)NC(C)C)cc(F)c2C)c2ccc(=O)n(-c3c(F)cccc3F)c2n1 [179(c), 3-[2-{[3-(diethylamino)propyl]amino}-8-(2,6-difluorophenyl)-7-oxo-7,8-dihydropyrido[2,3-d]pyrimidin-4-yl]-5-fluoro-4-methyl-N-(1-methylethyl)benzamide]	active	active
CCN(CC)CCCNc1nc(-c2cccc(C(=O)NC)c2)c2ccc(=O)n(-c3c(F)cccc3F)c2n1 [193(b), 3-[2-{[3-(diethylamino)propyl]amino}-8-(2,6-difluorophenyl)-7-oxo-7,8-dihydropyrido[2,3-d]pyrimidin-4-yl]-N-methylbenzamide]	active	active
Cc1ccc(C(=O)NC(C)C)cc1-c1nc(N(C)CCCN(C)C)nc2c1ccc(=O)n2-c1c(F)cccc1F [Example 34, 3-{8-(2,6-difluorophenyl)-2-[[3-(dimethylamino)propyl](methyl)amino]-7-oxo-7,8-dihydropyrido[2,3-d]pyrimidin-4-yl}-4-methyl-N-(1-methylethyl)benzamide]	active	active
Cc1ccc(C(=O)NC2CC2)cc1-c1nc(NC(CO)CO)nc2c1ccc(=O)n2-c1c(F)cccc1F [Example 36, N-cyclopropyl-3-(8-(2,6-difluorophenyl)-2-{[2-hydroxy-1-(hydroxymethyl)ethyl]-amino}-7-oxo-7,8-dihydropyrido[2,3-d]pyrimidin-4-yl)-4-methylbenzamide]	active	active
Cc1ccc(C(=O)NC(C)C)cc1-c1nc(N(C)CCN(C)C)nc2c1ccc(=O)n2-c1c(F)cccc1F [Example 100, 3-{8-(2,6-difluorophenyl)-2-[[2-(dimethylamino)ethyl](methyl)amino]-7-oxo-7,8-dihydropyrido[2,3-d]pyrimidin-4-yl}-4-methyl-N-(1-methylethyl)benzamide]	active	active
CCN(CC)CCCNc1nc(-c2cccc(C(=O)NC3CC3)c2C)c2ccc(=O)n(-c3c(F)cccc3F)c2n1 [Example 155, N-cyclopropyl-3-[2-{[3-(diethylamino)propyl]amino}-8-(2,6-difluorophenyl)-7-oxo-7,8-dihydropyrido[2,3-d]pyrimidin-4-yl]-2-methylbenzamide]		active
CCN(CC)CCCNc1nc(-c2cccc(C(=O)NCC#N)c2C)c2ccc(=O)n(-c3c(F)cccc3F)c2n1 [Example 156, N-(cyanomethyl)-3-[2-{[3-(diethylamino)propyl]amino}-8-(2,6-difluorophenyl)-7-oxo-7,8-dihydropyrido[2,3-d]pyrimidin-4-yl]-2-methylbenzamide]		active
Cc1ccc(C(=O)NCC(C)(C)C)cc1-c1nc(N2CCC(N3CCC(C)CC3)CC2)nc2c1ccc(=O)n2-c1c(F)cccc1F [Example 171, 3-[8-(2,6-difluorophenyl)-2-(4-methyl-1,4′-bipiperidin-1′-yl)-7-oxo-7,8-dihydropyrido[2,3-d]pyrimidin-4-yl]-N-(2,2-dimethylpropyl)-4-methylbenzamide]		active
CCN(CC)CCCNc1nc(-c2ccc(C(=O)NC(C)C)cc2)c2ccc(=O)n(-c3c(F)cccc3F)c2n1 [Example 189, 4-[2-{[3-(diethylamino)propyl]amino}-8-(2,6-difluorophenyl)-7-oxo-7,8-dihydropyrido[2,3-d]pyrimidin-4-yl]-N-(1-methylethyl)benzamide]		active
CCN(CC)CCCNc1nc(-c2ccc(C(=O)NC3CC3)cc2)c2ccc(=O)n(-c3c(F)cccc3F)c2n1 [Example 190, N-cyclopropyl-4-[2-{[3-(diethylamino)propyl]amino}-8-(2,6-difluorophenyl)-7-oxo-7,8-dihydropyrido[2,3-d]pyrimidin-4-yl]benzamide]		active
CCN(CC)CCCNc1nc(-c2ccc(C(=O)Nc3ccc(F)cc3)cc2)c2ccc(=O)n(-c3c(F)cccc3F)c2n1 [Example 191, 4-[2-{[3-(diethylamino)propyl]amino}-8-(2,6-difluorophenyl)-7-oxo-7,8-dihydropyrido[2,3-d]pyrimidin-4-yl]-N-(4-fluorophenyl)benzamide]		active
CCN(CC)CCCNc1nc(-c2ccc(C(=O)Nc3nccs3)cc2)c2ccc(=O)n(-c3c(F)cccc3F)c2n1 [Example 192, 4-[2-{[3-(diethylamino)propyl]amino}-8-(2,6-difluorophenyl)-7-oxo-7,8-dihydropyrido[2,3-d]pyrimidin-4-yl]-N-1,3-thiazol-2-ylbenzamide]		active
